Experimental data from paper PMC10296241.
Results are given in words; binding and its absence hold for the method and conditions named. In cells and extracts the contact can be indirect. Some results given as binding are weak or reduced against the parent protein; the word gives no strength.

By UniProt entry, the sequences of proteins in these tests, tags left out.
UniProt P04608: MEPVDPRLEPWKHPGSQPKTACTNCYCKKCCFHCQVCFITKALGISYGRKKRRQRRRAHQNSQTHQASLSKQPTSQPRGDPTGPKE
UniProt Q92993: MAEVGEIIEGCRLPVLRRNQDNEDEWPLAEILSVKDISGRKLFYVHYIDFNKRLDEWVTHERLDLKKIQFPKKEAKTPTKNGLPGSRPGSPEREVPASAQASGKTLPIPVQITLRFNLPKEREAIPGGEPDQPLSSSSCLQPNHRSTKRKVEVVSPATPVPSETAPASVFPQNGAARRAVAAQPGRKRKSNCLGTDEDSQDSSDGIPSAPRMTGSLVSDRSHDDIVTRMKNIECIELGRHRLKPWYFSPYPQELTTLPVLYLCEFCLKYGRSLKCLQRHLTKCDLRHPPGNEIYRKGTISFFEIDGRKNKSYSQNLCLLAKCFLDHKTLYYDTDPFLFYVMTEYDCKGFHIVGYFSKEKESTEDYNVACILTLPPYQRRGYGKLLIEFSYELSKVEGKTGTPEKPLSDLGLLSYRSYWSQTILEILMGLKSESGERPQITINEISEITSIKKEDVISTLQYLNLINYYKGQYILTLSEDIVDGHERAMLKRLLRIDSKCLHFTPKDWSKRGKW

B1: NFAT2 (protein, UniProt O95644 1-943)
chain: MPSTSFPVPSKFPLGPAAAVFGRGETLGPAPRAGGTMKSAEEEHYGYASSNVSPALPLPTAHSTLPAPCHNLQTSTPGIIPPADHPSGYGAALDGGPAGYFLSSGHTRPDGAPALESPRIEITSCLGLYHNNNQFFHDVEVEDVLPSSKRSPSTATLSLPSLEAYRDPSCLSPASSLSSRSCNSEASSYESNYSYPYASPQTSPWQSPCVSPKTTDPEEGFPRGLGACTLLGSPRHSPSTSPRASVTEESWLGARSSRPASPCNKRKYSLNGRQPPYSPHHSPTPSPHGSPRVSVTDDSWLGNTTQYTSSAIVAAINALTTDSSLDLGDGVPVKSRKTTLEQPPSVALKVEPVGEDLGSPPPPADFAPEDYSSFQHIRKGGFCDQYLAVPQHPYQWAKPKPLSPTSYMSPTLPALDWQLPSHSGPYELRIEVQPKSHHRAHYETEGSRGAVKASAGGHPIVQLHGYLENEPLMLQLFIGTADDRLLRPHAFYQVHRITGKTVSTTSHEAILSNTKVLEIPLLPENSMRAVIDCAGILKLRNSDIELRKGETDIGRKNTRVRLVFRVHVPQPSGRTLSLQVASNPIECSQRSAQELPLVEKQSTDSYPVVGGKKMVLSGHNFLQDSKVIFVEKAPDGHHVWEMEAKTDRDLCKPNSLVVEIPPFRNQRITSPVHVSFYVCNGKRKRSQYQRFTYLPANVPIIKTEPTDDYEPAPTCGPVSQGLSPLPRPYYSQQLAMPPDPSSCLVAGFPPCPQRSTLMPAAPGVSPKLHDLSPAAYTKGVASPGHCHLGLPQPAGEAPAVQDVPRPVATHPGSPGQPPPALLPQQVSAPPSSSCPPGLEHSLCPSSPSPPLPPATQEPTCLQPCSPACPPATGRPQHLPSTVRRDESPTAGPRLLPEVHEDGSPNLAPIPVTVKREPEELDQLYLDDVNEIIRNDLSSTSTHS

Biological target: HIV-1 Tat transcriptional activator (HIV-1) (UniProt P04608)
Assay: co-IP; J-Lat cells cultured with (P/I) or without (CM) mitogens for 6 h; whole extracts in RIPA buffer (50 mM Tris-HCl pH 7.4, 150 mM NaCl, 1% Triton X-100, 1% sodium deoxycholate, 0.1% SDS, 1 mM EDTA); immunoprecipitation with rabbit polyclonal anti-Tat (ab43014) on magnetic protein G beads; Western blot for NFAT2 or Tip60

Molecule | binding
Tip60 (from UniProt Q92993 1-513) | binds
B1 | no binding
